# Assay results taken from publication PMC8255133.
# Chains of the proteins cited; added tags and fusions are not shown.
# UniProt P11531: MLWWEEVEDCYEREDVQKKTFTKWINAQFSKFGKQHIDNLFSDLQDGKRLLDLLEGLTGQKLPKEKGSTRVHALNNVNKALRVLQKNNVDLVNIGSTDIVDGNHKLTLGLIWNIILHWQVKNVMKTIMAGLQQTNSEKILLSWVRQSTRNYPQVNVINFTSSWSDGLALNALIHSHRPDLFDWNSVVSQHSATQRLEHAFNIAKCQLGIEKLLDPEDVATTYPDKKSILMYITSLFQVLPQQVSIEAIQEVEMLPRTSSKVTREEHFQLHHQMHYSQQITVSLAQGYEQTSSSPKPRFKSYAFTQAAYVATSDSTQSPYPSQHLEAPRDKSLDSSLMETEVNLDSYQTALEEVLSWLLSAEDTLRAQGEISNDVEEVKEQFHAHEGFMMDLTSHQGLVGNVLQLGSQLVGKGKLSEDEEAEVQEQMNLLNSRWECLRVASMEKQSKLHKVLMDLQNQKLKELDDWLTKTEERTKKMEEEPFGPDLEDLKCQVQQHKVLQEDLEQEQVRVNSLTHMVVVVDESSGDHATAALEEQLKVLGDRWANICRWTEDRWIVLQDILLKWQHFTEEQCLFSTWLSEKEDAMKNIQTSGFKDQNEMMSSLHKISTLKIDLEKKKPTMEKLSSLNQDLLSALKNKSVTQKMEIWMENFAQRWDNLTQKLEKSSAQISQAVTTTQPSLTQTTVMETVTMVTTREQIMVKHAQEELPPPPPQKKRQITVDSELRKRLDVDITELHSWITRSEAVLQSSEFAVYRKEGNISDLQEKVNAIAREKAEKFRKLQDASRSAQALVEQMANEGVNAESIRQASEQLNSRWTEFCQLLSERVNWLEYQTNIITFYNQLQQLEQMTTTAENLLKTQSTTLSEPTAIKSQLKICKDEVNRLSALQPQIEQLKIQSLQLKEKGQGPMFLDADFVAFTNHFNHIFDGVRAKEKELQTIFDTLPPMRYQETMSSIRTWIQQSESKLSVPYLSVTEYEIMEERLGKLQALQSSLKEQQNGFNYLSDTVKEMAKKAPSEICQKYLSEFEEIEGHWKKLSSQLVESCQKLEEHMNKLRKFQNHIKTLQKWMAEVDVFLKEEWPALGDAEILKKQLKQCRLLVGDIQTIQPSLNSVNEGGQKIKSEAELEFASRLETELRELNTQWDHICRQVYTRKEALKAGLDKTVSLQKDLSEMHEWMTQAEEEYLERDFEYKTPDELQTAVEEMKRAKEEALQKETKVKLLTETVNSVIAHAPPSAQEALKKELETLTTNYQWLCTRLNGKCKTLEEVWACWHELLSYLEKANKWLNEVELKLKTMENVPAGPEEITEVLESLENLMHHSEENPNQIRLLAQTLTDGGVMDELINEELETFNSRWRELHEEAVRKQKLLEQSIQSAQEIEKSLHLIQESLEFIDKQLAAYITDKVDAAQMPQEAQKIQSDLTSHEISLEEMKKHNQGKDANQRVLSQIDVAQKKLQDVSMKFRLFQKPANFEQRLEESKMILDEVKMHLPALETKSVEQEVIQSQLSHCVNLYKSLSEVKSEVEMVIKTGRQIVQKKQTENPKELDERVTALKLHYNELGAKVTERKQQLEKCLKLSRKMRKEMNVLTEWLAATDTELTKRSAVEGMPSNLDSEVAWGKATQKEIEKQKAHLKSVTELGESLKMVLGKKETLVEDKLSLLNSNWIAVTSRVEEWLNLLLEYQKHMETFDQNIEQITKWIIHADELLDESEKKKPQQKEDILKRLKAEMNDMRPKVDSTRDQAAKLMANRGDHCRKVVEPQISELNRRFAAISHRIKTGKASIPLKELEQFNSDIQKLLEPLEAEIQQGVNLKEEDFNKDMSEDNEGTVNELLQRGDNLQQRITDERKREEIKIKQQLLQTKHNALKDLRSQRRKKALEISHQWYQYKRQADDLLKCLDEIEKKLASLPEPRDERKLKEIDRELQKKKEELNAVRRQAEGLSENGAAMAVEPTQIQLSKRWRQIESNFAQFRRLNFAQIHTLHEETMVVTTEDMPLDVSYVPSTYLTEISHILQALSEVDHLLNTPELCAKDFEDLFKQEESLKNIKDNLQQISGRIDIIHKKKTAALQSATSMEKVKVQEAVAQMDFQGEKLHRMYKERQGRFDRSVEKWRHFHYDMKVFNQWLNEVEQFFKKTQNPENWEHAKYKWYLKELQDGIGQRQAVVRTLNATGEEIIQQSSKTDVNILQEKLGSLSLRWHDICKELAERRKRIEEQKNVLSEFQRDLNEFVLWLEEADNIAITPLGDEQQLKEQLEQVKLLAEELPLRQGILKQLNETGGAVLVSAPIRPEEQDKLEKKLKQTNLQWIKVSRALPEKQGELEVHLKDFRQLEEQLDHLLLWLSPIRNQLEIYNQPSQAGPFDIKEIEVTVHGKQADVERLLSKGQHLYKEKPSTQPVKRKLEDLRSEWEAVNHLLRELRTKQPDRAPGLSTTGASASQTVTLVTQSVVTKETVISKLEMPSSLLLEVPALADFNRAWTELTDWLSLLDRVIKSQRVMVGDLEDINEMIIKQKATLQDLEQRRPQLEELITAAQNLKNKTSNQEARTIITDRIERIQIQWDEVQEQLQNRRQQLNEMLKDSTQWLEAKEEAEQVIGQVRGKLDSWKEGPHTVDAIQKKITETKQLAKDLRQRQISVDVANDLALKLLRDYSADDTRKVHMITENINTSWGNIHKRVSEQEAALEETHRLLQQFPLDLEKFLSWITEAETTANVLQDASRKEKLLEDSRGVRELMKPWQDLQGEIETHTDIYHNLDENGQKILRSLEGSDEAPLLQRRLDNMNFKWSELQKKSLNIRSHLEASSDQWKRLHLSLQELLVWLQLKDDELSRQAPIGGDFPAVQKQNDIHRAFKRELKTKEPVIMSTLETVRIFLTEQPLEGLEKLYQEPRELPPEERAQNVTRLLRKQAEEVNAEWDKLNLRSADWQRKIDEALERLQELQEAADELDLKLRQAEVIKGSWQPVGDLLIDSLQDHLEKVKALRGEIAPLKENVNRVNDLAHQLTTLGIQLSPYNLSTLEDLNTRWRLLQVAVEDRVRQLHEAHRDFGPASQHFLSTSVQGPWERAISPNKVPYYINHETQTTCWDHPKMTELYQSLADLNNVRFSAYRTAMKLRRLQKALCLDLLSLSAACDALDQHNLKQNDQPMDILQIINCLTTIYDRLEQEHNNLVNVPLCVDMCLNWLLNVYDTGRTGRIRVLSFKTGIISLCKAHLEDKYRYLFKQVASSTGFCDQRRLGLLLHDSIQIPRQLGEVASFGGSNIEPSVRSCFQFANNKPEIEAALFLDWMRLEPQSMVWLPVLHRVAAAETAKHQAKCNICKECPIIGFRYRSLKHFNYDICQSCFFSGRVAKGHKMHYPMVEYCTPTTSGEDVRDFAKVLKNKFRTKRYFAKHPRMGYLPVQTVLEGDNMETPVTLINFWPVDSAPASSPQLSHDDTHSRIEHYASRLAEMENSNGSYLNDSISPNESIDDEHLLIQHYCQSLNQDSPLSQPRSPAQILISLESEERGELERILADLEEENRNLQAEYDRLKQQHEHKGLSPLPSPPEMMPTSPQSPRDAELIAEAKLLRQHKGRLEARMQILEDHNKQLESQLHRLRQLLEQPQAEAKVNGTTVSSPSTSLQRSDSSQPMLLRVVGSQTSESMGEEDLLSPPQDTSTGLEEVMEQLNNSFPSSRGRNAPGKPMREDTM
# UniProt Q9Z0J4: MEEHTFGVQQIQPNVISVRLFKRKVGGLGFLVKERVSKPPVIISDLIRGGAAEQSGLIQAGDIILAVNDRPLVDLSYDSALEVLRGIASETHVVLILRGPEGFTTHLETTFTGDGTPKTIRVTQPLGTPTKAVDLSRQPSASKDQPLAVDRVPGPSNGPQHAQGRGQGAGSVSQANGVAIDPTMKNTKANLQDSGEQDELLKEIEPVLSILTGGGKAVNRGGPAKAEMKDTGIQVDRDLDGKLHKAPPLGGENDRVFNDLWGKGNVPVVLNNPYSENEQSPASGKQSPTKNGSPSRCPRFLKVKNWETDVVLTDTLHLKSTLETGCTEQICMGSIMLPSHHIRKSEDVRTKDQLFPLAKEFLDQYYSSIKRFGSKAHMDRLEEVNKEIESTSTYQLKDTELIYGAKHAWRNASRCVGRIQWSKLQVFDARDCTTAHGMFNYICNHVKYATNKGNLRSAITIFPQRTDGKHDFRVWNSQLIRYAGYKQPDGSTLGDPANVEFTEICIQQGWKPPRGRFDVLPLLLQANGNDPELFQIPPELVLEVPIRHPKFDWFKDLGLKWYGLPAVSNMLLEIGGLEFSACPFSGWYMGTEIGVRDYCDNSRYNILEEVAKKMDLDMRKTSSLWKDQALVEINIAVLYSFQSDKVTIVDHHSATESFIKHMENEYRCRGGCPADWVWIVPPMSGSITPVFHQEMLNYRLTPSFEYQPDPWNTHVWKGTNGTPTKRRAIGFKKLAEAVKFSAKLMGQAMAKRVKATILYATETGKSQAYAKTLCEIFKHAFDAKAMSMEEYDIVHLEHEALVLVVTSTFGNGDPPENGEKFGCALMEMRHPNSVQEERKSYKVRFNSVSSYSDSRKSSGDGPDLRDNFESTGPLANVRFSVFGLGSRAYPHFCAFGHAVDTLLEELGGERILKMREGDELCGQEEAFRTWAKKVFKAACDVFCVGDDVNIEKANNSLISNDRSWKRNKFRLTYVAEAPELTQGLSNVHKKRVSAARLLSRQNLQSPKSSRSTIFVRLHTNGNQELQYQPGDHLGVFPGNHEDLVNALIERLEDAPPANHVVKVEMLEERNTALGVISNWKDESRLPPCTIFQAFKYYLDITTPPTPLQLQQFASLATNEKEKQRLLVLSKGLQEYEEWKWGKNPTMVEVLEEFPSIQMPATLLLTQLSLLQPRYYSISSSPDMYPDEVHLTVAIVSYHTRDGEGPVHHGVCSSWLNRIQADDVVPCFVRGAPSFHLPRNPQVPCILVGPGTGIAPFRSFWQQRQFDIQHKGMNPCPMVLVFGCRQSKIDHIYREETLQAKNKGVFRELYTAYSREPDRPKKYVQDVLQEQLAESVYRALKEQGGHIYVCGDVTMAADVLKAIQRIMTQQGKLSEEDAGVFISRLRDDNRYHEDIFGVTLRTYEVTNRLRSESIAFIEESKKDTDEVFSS
# UniProt P68368: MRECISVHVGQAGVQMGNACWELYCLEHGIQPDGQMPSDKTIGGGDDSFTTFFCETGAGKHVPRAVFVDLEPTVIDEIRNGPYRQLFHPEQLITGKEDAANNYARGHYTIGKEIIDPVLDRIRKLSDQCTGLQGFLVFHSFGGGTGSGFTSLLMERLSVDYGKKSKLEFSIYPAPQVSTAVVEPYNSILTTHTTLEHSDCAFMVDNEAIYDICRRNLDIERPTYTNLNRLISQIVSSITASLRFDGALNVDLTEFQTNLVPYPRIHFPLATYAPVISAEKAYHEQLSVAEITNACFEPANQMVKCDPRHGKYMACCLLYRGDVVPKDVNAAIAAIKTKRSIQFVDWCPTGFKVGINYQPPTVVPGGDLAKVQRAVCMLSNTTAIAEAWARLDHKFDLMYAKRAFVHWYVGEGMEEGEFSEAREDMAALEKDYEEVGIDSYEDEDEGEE
# No constants are given. Whether binding was seen depends on the method and setting. In cells and extracts the contact can be indirect. Here binding means that the protein was enriched with, or labelled near, the bait; the list need not be complete. For some of these results: A no says only that the protein was not detected with the bait.
# Target: dystrophin (full-length) (mouse (endogenous in heart)) (UniProt P11531)
# Experiment: affinity purification with mass spectrometry; MANEX1011B IPs of dystrophin from wild-type hearts (N = 3) and of μDys from μDYS-mdx^5cv hearts (N = 3), protein identification by MS, label-free emPAI; proteins found in control IPs (mdx^5cv, N = 3; MW8 on wild-type, N = 1) excluded
# Details: not given
row,Molecule,binding
1,Ahnak1 (from UniProt E9Q616 1-5656),binds
2,"cavin-1 (full-length) (protein, UniProt O54724 1-392) MEDVTLHIVERPYSGFPDASSEGPEPTQGEARATEEPSGTGSDELIKSDQVNGVLVLSLLDKIIGAVDQIQLTQAQLEERQAEMEGAVQSIQGELSKLGKAHATTSNTVSKLLEKVRKVSVNVKTVRGSLERQAGQIKKLEVNEAELLRRRNFKVMIYQDEVKLPAKLSVSKSLKESEALPEKEGDELGEGERPEDDTAAIELSSDEAVEVEEVIEESRAERIKRSGLRRVDDFKKAFSKEKMEKTKVRTRENLEKTRLKTKENLEKTRHTLEKRMNKLGTRLVPVERREKLKTSRDKLRKSFTPDHVVYARSKTAVYKVPPFTFHVKKIREGEVEVLKATEMVEVGPEDDEVGAERGEATDLLRGSSPDVHTLLEITEESDAVLVDKSDSD",binds
3,"caveolin-3 (protein, UniProt P51637 1-151) MMTEEHTDLEARIIKDIHCKEIDLVNRDPKNINEDIVKVDFEDVIAEPEGTYSFDGVWKVSFTTFTVSKYWCYRLLSTLLGVPLALLWGFLFACISFCHIWAVVPCIKSYLIEIQCISHIYSLCIRTFCNPLFAALGQVCSNIKVVLRREG",no binding
4,"cavin-2 (protein, UniProt Q63918 1-418) MGEDAAQAEKFQHPNTDMLQEKPSSPSPMPSSTPSPSLNLGSTEEAIRDNSQVNAVTVHTLLDKLVNMLDAVRENQHNMEQRQINLEGSVKGIQNDLTKLSKYQASTSNTVSKLLEKSRKVSAHTRAVRERLERQCVQVKRLENNHAQLLRRNHFKVLIFQEESEIPASVFVKEPVPSAAEGKEELADENKSLEETLHNVDLSSDDELPRDEEALEDSAEEKMEESRAEKIKRSSLKKVDSLKKAFSRQNIEKKMNKLGTKIVSVERREKIKKSLTPNHQKASSGKSSPFKVSPLSFGRKKVREGESSVENETKLEDQMQEDREEGSFTEGLSEASLPSGLMEGSAEDAEKSARRGNNSAVGSNADLTIEEDEEEEPVALQQAQQVRYESGYMLNSEEMEEPSEKQVQPAVLHVDQTA",binds

# The remaining lines, values ahead:
row,binding,Molecule
1,no binding,neuronal nitric oxide synthase (from UniProt Q9Z0J4 1-1429) (enzyme)
2,no binding,tubulin α4A (from UniProt P68368 1-448)
3,binds,"α1-syntrophin (protein, UniProt Q61234 1-503) MASGRRAPRTGLLELRCGAGSGAGGERWQRVLLSLAEDALTVSPADGEPGPEPEPAQLNGAAEPGAAPPQLPEALLLQRRRVTVRKADAGGLGISIKGGRENKMPILISKIFKGLAADQTEALFVGDAILSVNGEDLSSATHDEAVQALKKTGKEVVLEVKYMKEVSPYFKNSAGGTSVGWDSPPASPLQRQPSSPGPQPRNLSEAKHVSLKMAYVSRRCTPTDPEPRYLEICAADGQDAVFLRAKDEASARSWAGAIQAQIGTFIPWVKDELQALLTATGTAGSQDIKQIGWLTEQLPSGGTAPTLALLTEKELLFYCSLPQSREALSRPTRTAPLIATSSAHRLVHSGPSKGSVPYDAELSFALRTGTRHGVDTHLFSVESPQELAAWTRQLVDGCHRAAEGIQEVSTACTWNGRPCSLSVHIDKGFTLWAAEPGAARAMLLRQPFEKLQMSSDDGTSLLFLDFGGAEGEIQLDLHSCPKTMVFIIHSFLSAKVTRLGLLA"
4,binds,"cavin-4 (protein, UniProt A2AMM0 1-362) MEHNGSASNAGKIHQNRLSSVTEDEDQDAALTIVTVLDRVASVVDSVQASQKRIEERHREMGNAIKSVQIDLLKLSQSHSNTGYVVNKLFEKTRKVSAHIKDVKARVEKQQVRVTKVETKQEEIMKKNKFRVVIFQEDIPCPASLSVVKDRSLPENQEEAEEVFDPPIELSSDEEYYVEESRSARLRKSGKEHIDHIKKAFSRENMQKTRQTLDKKVSGIRTRIVTPERRERLRQSGERLRQSGERLRQSGERFKKSISSAAPSKEAFKIRSLRKAKDPKAEGQEVDRGMGVDIISGSLALGPIHEFHSDEFSETEKEVTKGGYSPQEGGDPPTPEPLKVTFKPQVRVEDDESLLLELKQSS"
5,binds,"cavin-3 (protein, UniProt Q91VJ2 1-260) MGESALEPGPVPETPAGGPVHAVTVVTLLEKLATMLEALRERQGGLAERQGGLAGSVRRIQSGLGALSRSHDTTSNTLTQLLAKAERVGSHADAAQERAVRRAAQVQRLEANHGLLVARGKLHVLLFKEETEIPARAFQKVPELLGPEDQLVLGPDQPEDEVGESSEEEPVESRAQRLRRTGLQKVQSLKRALSSRKAAQPTPVKPPRVGPVRSSEGPSEGQPAAQPEMESELETALEPEPPQPTKEDPEKPVLQIESAA"

# Target: dystrophin (full-length) (mouse (endogenous in heart)), P11531
# Experiment: as above
# Details: remark: other sources report otherwise
row,binding,Molecule
1,binds,"β2-syntrophin, Q61235 1-520 (protein) MAVWTRATKAGLVELLLRERWVRVVAELSGESLSLTGDAAAVEPEPPAAAFNGLPNGGGGESLPGSPNRGLGPPSPPAPPRGPAGEASASPPVRRVRVVKQEAGGLGISIKGGRENRMPILISKIFPGLAADQSRALRLGDAILSVNGTDLRQATHDQAVQALKRAGKEVLLEVKFIREVTPYIKKPSLVSDLPWEGASPQSPSFSGSEDSGSPKHQNTTKDRKVIPLKMCFAARNLSMPDLENRLIELHSPDSRNTLILRCKDTATAHSWFVAIHTNIMALLPQVLAELNAMLGATSTAGGSKEVKHIAWLAEQAKLDGGRQQWRPVLMAVTEKDLLLYDCMPWTRDAWASPCHSYPLVATRLVHSGSGCRSPSLGSDLTFATRTGSRQGIEMHLFRVETHRDLSTWTRILVQGCHAAAELIKEVSLGCTLSGQEVRFTVHYEHGFTITRDNGGASSILYRYPFERLKMSADDGIRNLYLDFGGPEGELTMDLHSCPKPIVFVLHTFLSAKVTRMGLLV"
